US6887656B2, “Color photographic element containing improved heterocyclic speed enhancing compound” (Eastman Kodak Company, priority 2003, dated 2005)

What was measured:
[1] = Relative speed (light sensitivity) of multilayer film coatings, stepped neutral exposure, C41 process; details: 0.0806 mmol/m^2
Experimental: (§1) Surfactants, coating aids, emulsion addenda (including 4-hydroxy-6-methyl-1,3,3a,7-tetraazaindene), sequestrants, thickeners, lubricants, matte and tinting dyes were added to the appropriate layers as is common in the art.
(§2) Layer 9 (Fast magenta layer): two parts mixed together at a 1:1 ratio just prior to coating;
(§3) Part A (dispersion melt): M-1 at 0.104; DIR-5 at 0.011; ILS-1 at 0.014 and gelatin at 0.420 and Part B (emulsion melt): a green-sensitized (with a mixture of GSD-1 and GSD-2) silver iodobromide tabular emulsion (2.90×0.13 μm, 3.7 mol % iodide) at 1.240; MC-2 at 0.021; DIR-6 at 0.003 and gelatin at 1.076. In some examples as noted, both parts were mixed together and stirred for at least 1 hr before coating.
(§4) All comparative and inventive heterocycles were dispersed in twice their own weight in N,N-dibutyllauramide unless otherwise noted. All parts containing the comparative or inventive heterocycles were stirred at 40 deg C. for at least 1 h before coating.
(§5) For comparative and inventive samples ML-11 to ML-41, 0.0806 mmol/m^2 (except for Compound AD that was at 0.0765 mmol/m^2 and Compound D that was at 0.0749 mmol/m^2) of the comparative or inventive heterocycle was added to either Part A or B of Layer 9 as noted.
(§6) To determine speed these multilayer coatings were given a stepped neutral exposure and processed in the KODAK FLEXICOLOR™ (C41) process as described in British Journal of Photography Annual, 1988, pp 196-198. Relative speed or light sensitivity (given in terms of fraction of a stop) was determined by comparing the exposure point +0.15 green density units above green Dmin to the check position without any heterocycle. A larger, more positive number means increased speed; a negative number means a loss in speed. To determine interimage, these multilayer coatings were given a stepped exposure in the red record while the green and blue layers were simultaneously given an uniform, nonimagewise flash exposure so that the green density (GminR) where there was no red record development (minimum red exposure point) was close to 1.0. Then, a red exposure point was determined that was 0.6 logE units less than the point that was 0.15 red density units above red Dmin. The green density (GR) was read at this red exposure point. Interimage is the difference in green density GR—GminR and represents the decrease in green layer development as a function of red exposure. Delta Interimage is the difference in interimage between the sample containing the heterocycle and the check sample without any heterocycle.

[2] = Red-onto-green interimage of multilayer film coatings (Delta Interimage vs check)
Experimental: as §1, §2, §3, §4, §5, §6

[3] = Layer 9 Method A (addendum in dispersion melt, dual melts), vs check without heterocycle, +0.15 green density above Dmin
[4] = Layer 9 Method A, green density difference GR-GminR vs check, more negative = more interimage
[5] = Layer 9 Method A + B (single melt-hold, stirred at least 1 h at 40 degrees C), vs check
[6] = Layer 9 Method A + B (single melt-hold), vs check
[7] = Layer 9 Method B (addendum premixed with emulsion melt, dual melts), vs check

SMILES	Speed [1, 3]	Delta Interimage [2, 4]	Speed [1, 5]	Delta Interimage [2, 6]	Speed [1, 7]	Delta Interimage ([2]; Layer 9 Method B, vs check)
CCCCCCCCCCCCCCCc1cccc(OC(CC)C(=O)Nc2nnc(NC(=O)CCCCC)s2)c1 (stereo not drawn) [AA]	+0.42 stop	+0.009				
CCCCCCCCCCCCCCCc1cccc(OC(CC)C(=O)Nc2nnc(N)s2)c1 (stereo not drawn) [AC]	+0.40 stop	+0.029				
CCCCCCSc1nnc(NC(=O)COc2ccc(C(C)(C)CC)cc2)s1 [AE]	+0.20 stop	−0.010				
CCCCCCCCCCCCCCCc1cccc(OCC(=O)Nc2nnc(SCCCC)n2CCCC)c1 [AG]	+0.27 stop	+0.003	+0.23 stop	+0.005		
CCCCCCCCCCCCCCCc1cccc(OC(CCCC)C(=O)Nc2nnc(SCC)s2)c1 (stereo not drawn) [AI]	+0.45 stop	+0.028			+0.33 stop	+0.028
CCC(Oc1ccc(C(C)(C)CC)cc1C(C)(C)CC)C(=O)Nc1ccc(CCCc2nnc3n2N=C(C)CC(=O)N3)cc1 (stereo not drawn) [AL]	+0.50 stop	+0.023				
CCCCCCSc1nnc(NC(=O)C(CC)Oc2ccc(C(C)(C)CC)cc2C(C)(C)CC)s1 (stereo not drawn) [AM]	+0.28 stop	+0.004			+0.27 stop	+0.008
CCCCCCCCCCCCCCCc1cccc(OC(CC)C(=O)Nc2nnc(SCCCC)n2C)c1 (stereo not drawn) [AU]	+0.23 stop	+0.010	+0.20 stop	+0.010		
CCCCCCCCC(CCCCCC)COc1ncnc2[nH]cnc12 (stereo not drawn) [CH-1, reference compound]	+0.40 stop	+0.035	−0.60 stop	+0.015	−0.47 stop	−0.006
CCC(Oc1ccc(C(C)(C)CC)cc1C(C)(C)CC)C(=O)Nc1nnc(S)s1 (stereo not drawn) [CH-3, reference compound]	+0.17 stop	+0.017	−0.53 stop	+0.015		
CCCCCCCCCCCCCCCc1cccc(OC(CC)C(=O)Nc2nnc(S)s2)c1 (stereo not drawn) [CH-4, reference compound]	+0.13 stop	+0.015	−0.97 stop	+0.020		
CCCCCCCCCCCCC(Oc1ccc(NS(=O)(=O)CCCC)cc1)c1nnc(S)o1 (stereo not drawn) [CH-5, reference compound]	+0.37 stop	+0.022	−0.43 stop	+0.031		
CCCCC(Oc1ccc(C(C)(C)CC)cc1C(C)(C)CC)c1nnc(S)o1 (stereo not drawn) [CH-6, reference compound]			−0.27 stop	+0.016		
CCC(=O)Nc1nnc(S(=O)(=O)N(C)CC)s1 [CH-7, reference compound]	+0.06 stop	+0.005				
CCSc1nnc(NC(=O)COc2ccc(C(C)(C)CC)cc2)s1 [CH-8, reference compound]	+0.03 stop	−0.001				
CCSc1nnc(NC(=O)C(CC)Oc2ccc(C(C)(C)C)cc2)s1 (stereo not drawn) [CH-9, reference compound]	+0.06 stop	+0.018				

SMILES	Speed [1, 3]	Delta Interimage [2, 4]	Speed [1, 5]	Delta Interimage [2, 6]	Speed [1, 7]	Delta Interimage ([2]; Layer 9 Method B, vs check)
CCCCCCCCCCCCCCCc1cccc(OCC(=O)Nc2nnc(S(=O)(=O)CC(CC)CC)s2)c1 [C]	+0.27 stop	+0.024				
CCSc1nnc(NC(=O)COc2ccc(C(C)(C)CC)cc2C(C)(C)CC)s1 [Compound AP]	+0.27 stop	−0.007				
CCCCC(Oc1ccc(C(C)(C)CC)cc1C(C)(C)CC)C(=O)Nc1nnc(SCC(C)CCC)s1 (stereo not drawn) [Compound AR]	+0.40 stop	+0.001			+0.27 stop	+0.001
CCC(Oc1ccc(C(C)(C)CC)cc1C(C)(C)CC)C(=O)Nc1ccc(CCCc2nnc3n2N=C(C)C(C)C(=O)N3)cc1 (stereo not drawn) [Compound AS]	+0.50 stop	+0.036				
CCCCC(Oc1ccc(C(C)(C)CC)cc1)C(=O)Nc1nnc(SCC)s1 (stereo not drawn) [Compound AV]	+0.20 stop	−0.003				
CCCCCCCCCCCCCCCc1cccc(OC(CC)C(=O)Nc2nnc(CCCCC)s2)c1 (stereo not drawn) [Compound A]	+0.42 stop	+0.018				
CCCCCCCCC(CCCCCC)CSc1nnc(NC(=O)CCCCC)s1 (stereo not drawn) [Compound B]	+0.45 stop	−0.003			+0.23 stop	−0.002
CCCCCCCCCCCCSc1nnc(SCCCCCCCC)s1 [Compound H]	+0.20 stop	−0.002				
CCCCCCCCCCCCCCCc1cccc(OC(CC)C(=O)Nc2nncs2)c1 (stereo not drawn) [G]	+0.42 stop	+0.005				
CCCCCCCCCCCCCCCc1cccc(OCC(=O)Nc2nnc([S+]([O-])CC(CC)CC)s2)c1 (stereo not drawn) [I]	+0.33 stop	+0.015				
CCCC(C)CSc1nnc(NC(=O)COc2ccc(C(C)(C)CC)cc2C(C)(C)CC)s1 (stereo not drawn) [P]	+0.48 stop	+0.022			+0.27 stop	+0.015
CCCCCCCCCCCCCCCc1cccc(OC(CC)C(=O)Nc2nnc(OCC)s2)c1 (stereo not drawn) [R]	+0.31 stop	+0.005				
CCCCCCCCC(CCCCCC)CSc1nnc(NC(=O)COc2ccc(C(C)(C)CC)cc2C(C)(C)CC)s1 (stereo not drawn) [S]	+0.48 stop	+0.016			+0.30 stop	+0.017
CCCCCCCCCCCCCCCc1cccc(OC(CC)C(=O)Nc2nnc(C(C)(C)C)s2)c1 (stereo not drawn) [U]	+0.42 stop	−0.002				
CCCCCCCCCCCCCCCc1cccc(OCC(=O)Nc2nnc(SCC(CC)CC)s2)c1 [X]	+0.28 stop	+0.008			+0.23 stop	+0.008
